Experimental data taken from article PMC5625047.
Results are given in words; binding and its absence hold for the method and conditions named. Binding can be weak; no strength is given.

Target: p38 MAPK (endogenous, mouse heart) (mouse (endogenous in C57BL/6 hearts))
Experiment: non-reducing SDS-PAGE with immunoblot; mouse hearts, Langendorff perfusion, vehicle then 100 μM H2O2 for 10 min; homogenate in SDS buffer with 100 μM maleimide

- binding: binds
B1: MKK3 (endogenous, mouse heart) (protein, UniProt O09110 1-347)
chain: MESPAASPPASLPQTKGKSKRKKDLRISCVSKPPVSNPTPPRNLDSRTFITIGDRNFEVEADDLVTISELGRGAYGVVEKVRHAQSGTIMAVKRIRATVNTQEQKRLLMDLDINMRTVDCFYTVTFYGALFREGDVWICMELMDTSLDKFYRKVLEKNMKIPEDILGEIAVSIVRALEHLHSKLSVIHRDVKPSNVLINKEGHVKMCDFGISGYLVDSVAKTMDAGCKPYMAPERINPELNQKGYNVKSDVWSLGITMIEMAILRFPYESWGTPFQQLKQVVEEPSPQLPADQFSPEFVDFTSQCLRKNPAERMSYLELMEHPFFTLHKTKKTDIAAFVKEILGEDS
